In assay [1] the target is T1, MPK3, Arabidopsis mitogen-activated protein kinase 3 (Arabidopsis thaliana) (UniProt Q39023).
T1 sequence: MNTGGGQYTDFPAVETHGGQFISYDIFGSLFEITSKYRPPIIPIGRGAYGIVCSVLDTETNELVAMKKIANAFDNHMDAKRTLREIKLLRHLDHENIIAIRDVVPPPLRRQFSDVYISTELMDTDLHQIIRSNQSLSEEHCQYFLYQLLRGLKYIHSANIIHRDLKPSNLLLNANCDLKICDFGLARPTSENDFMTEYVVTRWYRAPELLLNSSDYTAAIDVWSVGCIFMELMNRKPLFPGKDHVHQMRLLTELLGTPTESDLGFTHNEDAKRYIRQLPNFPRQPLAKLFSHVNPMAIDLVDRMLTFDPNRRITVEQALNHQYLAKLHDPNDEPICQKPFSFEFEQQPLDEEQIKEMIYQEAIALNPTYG
In words: split reporter; BiFC with split YFP; both proteins transiently co-expressed with P19 in N. benthamiana leaf epidermal cells by agroinfiltration; YFP fluorescence by confocal microscopy three days after infiltration.

Sequences of proteins named here, by UniProt entry; tags and fusion partners are left off.
UniProt Q39026: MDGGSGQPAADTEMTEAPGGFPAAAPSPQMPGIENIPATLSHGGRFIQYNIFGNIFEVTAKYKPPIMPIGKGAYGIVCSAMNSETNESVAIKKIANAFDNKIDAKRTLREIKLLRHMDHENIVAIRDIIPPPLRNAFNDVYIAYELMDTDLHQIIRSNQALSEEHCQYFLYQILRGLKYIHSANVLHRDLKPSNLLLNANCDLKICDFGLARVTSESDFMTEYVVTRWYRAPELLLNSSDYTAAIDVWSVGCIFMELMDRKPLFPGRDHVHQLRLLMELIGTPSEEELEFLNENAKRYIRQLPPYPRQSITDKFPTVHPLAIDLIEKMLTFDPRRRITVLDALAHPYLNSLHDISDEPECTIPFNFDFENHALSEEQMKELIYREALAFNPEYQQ

Assay [2] has as its target MPK6, Arabidopsis mitogen-activated protein kinase 6 (Arabidopsis thaliana) (UniProt Q39026). Described as above.

No constants are given. Whether binding was seen depends on the method and setting. Binding seen in cells or lysates may run through a third protein. Some entries that bind do so weakly or less than the wild type.

B1: WLIM2A (At2g39900), Arabidopsis LIM protein (protein, UniProt O04193 1-200)
chain: MSFTGTQQKCRACEKTVYPVELLSADGISYHKACFKCSHCKSRLQLSNYSSMEGVVYCRPHFEQLFKESGSFSKNFQSPAKPLTDKPTPELNRTPSRLAGMFSGTQDKCATCTKTVYPIEKVTVESQCYHKSCFKCSHGGCPISPSNYAALEGILYCKHHFAQLFKEKGSYNHLIKSASIKRATAAATAAAAAVAAVPES
Turning to B1, the binding entry in assay [1] and in assay [2] was “binds” throughout.

For the origin of these results see article PMC11545931.
